Test results: PMC12904725
These are yes or no findings as the source states them, for the method shown. Binding seen in cells or lysates may run through a third protein. Some results given as binding are weak or reduced against the parent protein; the word gives no strength.

Protein sequences, listed by entry. Tags and fused reporters are not part of them.
UniProt O15550: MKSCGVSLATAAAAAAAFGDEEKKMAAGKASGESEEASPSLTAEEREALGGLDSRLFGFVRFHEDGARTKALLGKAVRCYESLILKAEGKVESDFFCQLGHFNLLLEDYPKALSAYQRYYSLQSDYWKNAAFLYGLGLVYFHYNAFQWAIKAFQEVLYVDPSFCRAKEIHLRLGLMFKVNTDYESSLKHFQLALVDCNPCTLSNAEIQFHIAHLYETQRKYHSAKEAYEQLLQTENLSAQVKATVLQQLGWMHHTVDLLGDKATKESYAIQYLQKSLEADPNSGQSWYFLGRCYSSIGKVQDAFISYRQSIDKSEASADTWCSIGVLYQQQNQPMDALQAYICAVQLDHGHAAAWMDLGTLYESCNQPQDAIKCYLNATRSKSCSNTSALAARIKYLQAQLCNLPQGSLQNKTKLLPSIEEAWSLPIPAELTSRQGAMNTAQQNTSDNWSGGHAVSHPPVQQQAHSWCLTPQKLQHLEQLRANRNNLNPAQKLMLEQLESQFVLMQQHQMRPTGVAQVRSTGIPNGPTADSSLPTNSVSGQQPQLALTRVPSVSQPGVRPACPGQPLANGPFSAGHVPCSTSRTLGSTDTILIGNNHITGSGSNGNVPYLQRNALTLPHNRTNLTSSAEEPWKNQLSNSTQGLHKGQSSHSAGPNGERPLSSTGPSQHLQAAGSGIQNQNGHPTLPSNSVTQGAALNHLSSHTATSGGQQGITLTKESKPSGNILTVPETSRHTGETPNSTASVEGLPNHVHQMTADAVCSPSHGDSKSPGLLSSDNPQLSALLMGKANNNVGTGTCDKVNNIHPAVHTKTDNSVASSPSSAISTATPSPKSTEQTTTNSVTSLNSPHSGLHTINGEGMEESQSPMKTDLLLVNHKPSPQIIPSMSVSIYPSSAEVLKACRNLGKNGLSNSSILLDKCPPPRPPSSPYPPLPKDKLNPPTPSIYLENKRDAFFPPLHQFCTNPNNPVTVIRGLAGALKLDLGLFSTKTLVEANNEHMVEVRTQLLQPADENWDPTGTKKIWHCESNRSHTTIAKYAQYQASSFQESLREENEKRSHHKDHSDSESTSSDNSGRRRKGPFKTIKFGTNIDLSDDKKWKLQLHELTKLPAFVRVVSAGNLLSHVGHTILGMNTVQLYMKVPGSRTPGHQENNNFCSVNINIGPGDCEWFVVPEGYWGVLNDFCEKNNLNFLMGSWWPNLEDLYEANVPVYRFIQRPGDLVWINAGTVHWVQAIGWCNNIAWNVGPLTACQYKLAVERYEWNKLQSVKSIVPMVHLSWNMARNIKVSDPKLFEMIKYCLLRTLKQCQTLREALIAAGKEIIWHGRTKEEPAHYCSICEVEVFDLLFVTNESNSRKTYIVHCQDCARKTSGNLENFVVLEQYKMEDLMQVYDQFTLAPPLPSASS
UniProt P36402: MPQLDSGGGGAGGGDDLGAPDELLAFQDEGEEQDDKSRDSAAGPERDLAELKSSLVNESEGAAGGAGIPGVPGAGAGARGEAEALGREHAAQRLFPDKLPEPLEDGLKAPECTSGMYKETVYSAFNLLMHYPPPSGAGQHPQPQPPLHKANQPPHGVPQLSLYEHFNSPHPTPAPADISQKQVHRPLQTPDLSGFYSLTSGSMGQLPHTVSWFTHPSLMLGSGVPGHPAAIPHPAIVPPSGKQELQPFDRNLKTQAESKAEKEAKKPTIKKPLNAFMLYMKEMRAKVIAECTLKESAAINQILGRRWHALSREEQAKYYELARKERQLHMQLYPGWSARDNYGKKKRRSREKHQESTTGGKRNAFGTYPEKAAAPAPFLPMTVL
UniProt P40763: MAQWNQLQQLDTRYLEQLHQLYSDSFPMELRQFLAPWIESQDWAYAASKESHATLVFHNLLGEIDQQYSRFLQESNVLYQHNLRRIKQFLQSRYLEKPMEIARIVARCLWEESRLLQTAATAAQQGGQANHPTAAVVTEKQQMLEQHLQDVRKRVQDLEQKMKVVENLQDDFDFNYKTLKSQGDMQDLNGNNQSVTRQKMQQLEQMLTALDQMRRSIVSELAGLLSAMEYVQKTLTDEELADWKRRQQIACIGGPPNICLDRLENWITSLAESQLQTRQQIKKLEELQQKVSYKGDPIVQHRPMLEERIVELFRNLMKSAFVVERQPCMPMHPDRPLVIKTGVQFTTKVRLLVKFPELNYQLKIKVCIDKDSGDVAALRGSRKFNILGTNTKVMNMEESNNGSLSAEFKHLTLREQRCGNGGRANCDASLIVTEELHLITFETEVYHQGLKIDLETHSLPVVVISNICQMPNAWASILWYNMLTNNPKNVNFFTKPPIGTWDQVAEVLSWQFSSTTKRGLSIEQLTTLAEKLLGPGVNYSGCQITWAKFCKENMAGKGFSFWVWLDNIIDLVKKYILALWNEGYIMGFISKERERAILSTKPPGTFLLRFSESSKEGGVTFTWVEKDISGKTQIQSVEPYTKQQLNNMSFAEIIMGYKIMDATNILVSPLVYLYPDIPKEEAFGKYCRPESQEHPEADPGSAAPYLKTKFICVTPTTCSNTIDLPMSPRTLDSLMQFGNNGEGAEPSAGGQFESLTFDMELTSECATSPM

Assays:
[1] = molecular target: Flag-tag UTX (ubiquitously transcribed tetratricopeptide repeat, X chromosome; encoded by KDM6A) (UniProt O15550); experiment: co-IP; HEK-293T cells cotransfected with the two tagged constructs, harvested 24 h later, Nuclear Complex Co-IP Kit, 500 ug total protein, anti-FLAG M2 magnetic beads overnight, 6 washes, Western blot (HA and FLAG antibodies); empty Flag construct as control for STAT3
[2] = molecular target: endogenous UTX protein (human (endogenous in Jurkat)) (UniProt O15550); experiment: co-IP; Jurkat nuclear protein lysate (Nuclear Complex Co-IP Kit), 500 ug total protein, 7 ug UTX antibody overnight at 4 C, Protein A 1 h, 6 washes, Western blot; rabbit IgG as negative control

Row | binding [1] | binding [2] | Substance
1 | binds |  | HA-Tag TCF1 (from UniProt P36402 1-384)
2 |  | binds | TCF1 (endogenous, Jurkat) (from UniProt P36402 1-384)
3 |  | binds | STAT3 (endogenous, Jurkat) (from UniProt P40763 1-770)
